These results are taken from PubChem BioAssay AID2685 (National Center for Advancing Translational Sciences (NCATS), 2010).

The other results are listed elsewhere or left out. The main result of the screen is listed elsewhere. These columns were measured beside it and carry no call. Compounds called inactive in the main read-out are mostly missing here. Words in brackets tell the shape of the fitted curve; partial curves, single points and poor fits give uncertain potencies.

The assay can be described thus: qHTS Assay for Lipid Storage Modulators in Drosophila S3 Cells.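 On cell number change: cells counted by Cell Tracker Red CMTPX staining in the red channel.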 The conditions noted are these: BODIPY lipid droplet fluorescence, 18-24 h; for cell number change: measured here: cell count max response, cells fed with added oleic acid. Put shortly:
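Drosophila S3 cells loaded with oleic acid (400 uM, as added) and compounds at several concentrations; lipid droplets imaged by 488-nm laser-scanning cytometry, 500–530 nm intensity and object ratio to cell channel. Percent activity normalized to 20 uM Triacsin C.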
In general terms: In qHTS, concentration-response curves come from the screen itself.

Setting [1] is: measured here: cell number channel AC50, cells fed with added oleic acid.
The mark [2] stands for this setting: measured here: lipid fluorescence (Fed channel) AC50, cells fed with added oleic acid.

The AC50 is the midpoint of the concentration-response curve, whichever way the signal moves. Low values mean greater potency, high ones weaker potency. `COc1ccc(C2N(Cc3ccccc3)CCN2Cc2ccccc2)cc1[N+](=O)[O-]`: the cell number change is -16.4%. In addition, the half-maximal activity concentration (AC50) under setting [1] is 2.91 µM [falling, single point]. Moreover, the AC50 under setting [2] was 5.8 µM [falling, single point].

Turning to `O=C1[C@H]2[C@@H](c3ccc(F)cc3)N3C(=O)N(c4cccc(Br)c4)C(=O)[C@@]3(Cc3ccc(Cl)cc3)[C@H]2C(=O)N1C1CCCCC1`, the cell number change was found to be 110%. Besides, the AC50 under setting [1] is 20.6 µM [rising, partial curve]. Moreover, the AC50 under setting [2] is 0.58 µM [falling, single point].

Take `Cc1ccc(NCC(O)C(O)C(O)CO)cc1C` (stereo unspecified): the cell number change is -31.4%. The AC50 under setting [1] was 0.13 µM [falling, full curve, poor fit]. For the same molecule, the AC50 under setting [2] is 23.1 µM [falling, partial curve].

With `N#Cc1c(N)nc(SCc2ccccc2)c(C#N)c1-c1ccco1`, the cell number change was -28.1%. Further, the AC50 under setting [2] was 18.4 µM [falling, single point].

Regarding `COc1cc(C2C(C#N)=C(N)Oc3cc(O)ccc32)cc2c1OCO2` (stereo unspecified), the cell number change is -29%. For the same molecule, the AC50 under setting [2] is 0.00461 µM [falling, full curve, poor fit].

For the molecule `Cc1ccnc(NC2CCCCC2)c1`, the cell number change is -58.3%. Besides, the AC50 under setting [1] was 0.517 µM [falling, full curve].

Turning to `COc1cccc(CC(=O)Nc2cc(S(=O)(=O)N3CCOCC3)ccc2N2CCOCC2)c1`, the cell number change was -10.8%.

With `Cc1noc(C)c1COc1ccc(C(=O)N2CCN(c3ccccc3O)CC2)cc1`, the cell number change was found to be 0.928%.

In the case of `CN1C[N+]([O-])=C(c2ccccc2)C1(C)C`, the cell number change worked out at 24.9%. Under setting [1], the AC50 is 2.31 µM [rising, full curve, poor fit]. Under setting [2], the AC50 is 4.11 µM [rising, full curve].

`O=C(CCNC(=O)Cn1ccc2ccccc2c1=O)NCCN1CCc2ccccc2C1`: the cell number change was -13.6%. For the same molecule, the AC50 under setting [1] is 0.517 µM [falling, full curve]. For the same molecule, the AC50 under setting [2] was 0.291 µM [falling, full curve, poor fit].

Turning to `COC(=O)c1ccc(S(=O)(=O)N2CCCCC2)o1`, the cell number change was -49.1%. Moreover, under setting [1], the AC50 was 25.9 µM [falling, single point]. Moreover, the AC50 under setting [2] is 0.259 µM [falling, full curve, poor fit].

On to `Cc1cc(NC(=O)CN2CCN(c3ccccn3)CC2)ccc1Br`, for which the cell number change worked out at 0.354%.

For the molecule `CC(=O)c1cccc(NC(=O)Nc2cnn(Cc3ccc(Cl)cc3Cl)c2)c1`, the AC50 runs as follows: under setting [1], 1.84 µM [rising, partial curve]; under setting [2], 0.58 µM [rising, single point].

Consider `COc1ccc(NC(=O)NC(=O)c2ccccc2)cc1`, for which the cell number change came to 3.52%. Further, under setting [2], the AC50 is 6.51 µM [rising, single point].

As to `COc1ccc2c(c1)CCC/C2=N/OC(=O)c1ccccc1OC`, the cell number change is -40.4%. For the same molecule, under setting [1], the AC50 is 3.66 µM [falling, single point]. Moreover, the AC50 under setting [2] was 29.1 µM [falling, single point].

Turning to `COc1ccc(NC(=O)CSc2nc(N)c(C#N)cc2C#N)cc1`, the AC50 under setting [1] was 0.58 µM [rising, full curve].

Take `COC(=O)CN(c1nc(C)c(Cl)c(OC)n1)S(=O)(=O)c1ccc(C)cc1`: the cell number change amounted to 0.636%. Further, the AC50 under setting [2] was 0.092 µM [falling, full curve, poor fit].

On to `CCCn1c(SCC(=O)Nc2nnc(CC)s2)nnc1-c1ccco1`, for which the cell number change was 16.8%.

Turning to `CCCc1nc(-c2ccccc2O)n(-c2ccccc2)n1`, the cell number change was -25.9%. In addition, under setting [2], the AC50 is 25.9 µM [rising, single point].

As for `CC(=O)c1ccc(S(=O)c2ccccc2)cc1` (stereo unspecified), the cell number change was found to be 3.51%. The AC50 under setting [1] was 6.51 µM [falling, single point].

Turning to `CC(C)c1ccccc1OCCCN1CCCC1`, the cell number change was -6.42%. Besides, the AC50 under setting [2] is 2.91 µM [falling, single point].

Consider `O=C(Nc1nnc(-c2ccc3c(c2)CCCC3)o1)c1ccccc1Cl`, for which the cell number change stood at 2.93%. Under setting [2], the AC50 was 16.4 µM [rising, partial curve].

For the molecule `C=CCn1cnc2scc(-c3ccc(OC)cc3)c2c1=O`, the cell number change is -18.7%. The AC50 under setting [1] is 0.731 µM [falling, full curve, poor fit]. In addition, the AC50 under setting [2] is 18.4 µM [rising, single point].

For the molecule `CCCc1c(C)[nH]c2ccc(C(=O)O)cc2c1=S`, the AC50 under setting [2] was 3.66 µM [falling, full curve].

For `COC(=O)/C(=C\Nc1ccccc1N)c1ncc(C(F)(F)F)cc1Cl`, the cell number change stood at 67.7%. Moreover, the AC50 under setting [1] is 10.3 µM [rising, partial curve]. Moreover, the AC50 under setting [2] is 18.4 µM [rising, partial curve].

On to `CC(=O)N1c2ccccc2C(=O)C1N1CCCCC1` (stereo unspecified), for which the cell number change is -1.16%.

As for `CC(C)(C)NS(=O)(=O)c1ccc(-c2csnn2)s1`, the AC50 under setting [1] was 0.164 µM [falling, full curve, poor fit].

For `O=C(O)CCCCNCc1ccccc1`, the cell number change is -73.2%. Moreover, under setting [1], the AC50 is 2.91 µM [falling, full curve].

`CCOc1ccc(/C=C/C(=O)OCC(=O)Nc2cccc(S(=O)(=O)N3CCCC3)c2)cc1`: the cell number change was -0.937%.

In the case of `CC(C)(C)c1ccc(OCCCC(=O)N2CCOCC2)cc1`, the cell number change is -43.3%. Besides, the AC50 under setting [1] is 14.6 µM [falling, partial curve]. The AC50 under setting [2] is 29.1 µM [falling, single point].

Consider `Cc1c(NC(=O)COC(=O)c2ccc(S(=O)(=O)N3CCOCC3)cc2)c(=O)n(-c2ccccc2)n1C`, for which the cell number change was -24.4%. In addition, under setting [1], the AC50 is 0.00461 µM [falling, full curve, poor fit]. In addition, the AC50 under setting [2] is 0.00461 µM [falling, full curve, poor fit].

Regarding `COc1ccccc1CC(=O)N1CCN(c2ccccc2F)CC1`, the cell number change came to 9.7%. In addition, the AC50 under setting [2] is 29.1 µM [rising, single point].

Take `CC(C)(C)n1nc2c(c1NC(=O)Cc1ccc(Cl)cc1)CS(=O)(=O)C2`: the cell number change was -43.6%. Besides, the AC50 under setting [1] is 2.06 µM [falling, partial curve, poor fit].

`Cc1ccnc(NC(=O)c2cccc(NC(=O)CC3SC(N4CCCCC4)=NC3=O)c2)c1` (stereo unspecified): the cell number change came to 0.188%. For the same molecule, under setting [2], the AC50 was 2.31 µM [falling, partial curve, poor fit].

For the molecule `Cc1cc(NC(=O)c2noc3c2CCCC3)n(-c2ccccc2)n1`, the cell number change was determined as 20.8%.

In the case of `Cc1cc(C)n(CC(=O)NCc2ccccc2)c(=O)c1C#N`, the cell number change was -1.84%.

Regarding `CCCNc1nc2c(c(=O)[nH]c(=O)n2C)n1CCc1ccccc1`, the cell number change was determined as 72.2%.

As to `Cc1nc(N)sc1-c1csc(Nc2ccccn2)n1`, the cell number change was 3.12%. Further, the concentration at half-maximal activity (AC50) under setting [2] is 0.00517 µM [rising, full curve, poor fit].

On to `Nc1nc2nc(-c3ccc(F)cc3)cc(C(F)(F)F)n2n1`, for which the cell number change came to 3.84%. In addition, the AC50 under setting [1] is 2.31 µM [rising, partial curve, poor fit].

`Cc1cc(OC(C)C(=O)Nc2ccncc2)ccc1Cl` (stereo unspecified): the cell number change is -50.8%. Also, under setting [1], the AC50 is 13 µM [falling, partial curve]. Besides, under setting [2], the AC50 was 6.51 µM [falling, single point].

On to `CCC(=O)N/C(N)=N/c1nc(C)c2cc(OC)ccc2n1`, for which the AC50 under setting [1] was 2.31 µM [rising, partial curve].

For the molecule `CC(=O)OCCc1c(C)nc2nc[nH]n2c1=O`, the AC50 under setting [2] was 25.9 µM [falling, partial curve].

In the case of `O=C(CN(C(=O)CNS(=O)(=O)c1ccc(F)cc1)C1CCCC1)NCc1ccco1`, the cell number change amounted to 2.56%. For the same molecule, under setting [2], the AC50 is 6.51 µM [falling, partial curve].

For the molecule `Cc1nn(C)c2ncc(C(=O)c3ccccc3O)cc12`, the cell number change was -22.2%.

Regarding `COc1ccc(N(CC(O)Cn2c3ccccc3c3ccccc32)S(=O)(=O)c2ccccc2)cc1` (stereo unspecified), the cell number change was -3.92%. The AC50 under setting [2] is 0.00411 µM [rising, full curve, poor fit].

With `c1coc(CNC2CCCCCCC2)c1`, the cell number change is -19.8%. Besides, the AC50 under setting [2] was 7.31 µM [falling, partial curve, poor fit].

As for `O=C(CCn1c(=O)oc2ccc(Cl)cc21)NCCCN1CCOCC1`, the cell number change is -14.2%. In addition, the AC50 under setting [2] was 20.6 µM [falling, single point].

Consider `CCn1nnnc1SCC(=O)NCc1ccco1`, for which the cell number change is -30.9%. For the same molecule, under setting [1], the AC50 is 1.46 µM [falling, full curve]. Further, under setting [2], the AC50 was 1.3 µM [falling, full curve, poor fit].

For the molecule `O=C(Cn1[nH]c(=O)c2ccccc2c1=O)NNC(=O)c1ccccc1`, the cell number change is 11.8%.

Take `O=C(Nc1ccc(Cl)cc1)N[C@@H]1c2c(ccc3ccccc23)OC[C@@H]1CO`: the cell number change came to 8.91%. Besides, the AC50 under setting [2] was 0.146 µM [rising, full curve, poor fit].

Consider `CN(C)c1ccc(S(=O)(=O)N2CCCCC2)cc1NC(=O)CN1C(=O)NC2(CCCC2)C1=O`, for which, under setting [1], the AC50 is 3.66 µM [rising, partial curve, poor fit].

For `CCc1ccc(NS(=O)(=O)c2cc3c(cc2C)n(C)c(=O)c(=O)n3C)cc1`, the cell number change was -16.4%. Further, the AC50 under setting [2] is 32.6 µM [falling, single point].

Take `Cc1nc(N2CCN(Cc3ccccc3)CC2)nc2c1C(=O)CCC2`: the AC50 by setting is: under setting [1], 0.0291 µM [rising, full curve]; under setting [2], 6.51 µM [rising, partial curve, poor fit].

For the molecule `CCOc1ccccc1N(CC(=O)N1CCCCCC1)S(C)(=O)=O`, the cell number change was -11.4%. Also, under setting [2], the AC50 was 23.1 µM [falling, partial curve, poor fit].

`CCN1CCc2[nH]c3ccccc3c2C1`: the cell number change stood at 13.9%. The AC50 under setting [2] was 29.1 µM [rising, single point].

For the molecule `COc1ccc(OC)c(NC(=O)CC2(CC(=O)O)CCCC2)c1`, the cell number change was -23.1%. Besides, the AC50 under setting [2] is 29.1 µM [rising, single point].

Regarding `CCOc1ccc(S(=O)(=O)N2CCN(S(=O)(=O)c3ccc(C(C)=O)cc3)CC2)cc1`, the cell number change is -12.8%. Under setting [2], the AC50 is 2.31 µM [falling, full curve, poor fit].

Consider `Cc1csc(Sc2nc3c(c(=O)[nH]c(=O)n3C)n2CCCc2ccccc2)n1`, for which the cell number change amounted to 25.2%. The AC50 under setting [2] was 16.4 µM [rising, partial curve].

With `COc1ccc(CCNC(=O)C2CC(=O)N(c3ccc(C)cc3)C2)cc1` (stereo unspecified), under setting [2], the AC50 is 20.6 µM [rising, partial curve, poor fit].

Take `COc1ccccc1N1CCN(S(=O)(=O)c2cc(C)sc2C)CC1`: the cell number change was found to be 20.8%. Besides, the AC50 under setting [1] was 2.59 µM [rising, full curve, poor fit]. Besides, the AC50 under setting [2] was 2.06 µM [rising, full curve].
